Measurements published in paper PMC4707158.
Results are given in words; binding and its absence hold for the method and conditions named. Binding seen in cells or lysates may run through a third protein. A yes stands for co-enrichment or nearness to the bait. Other partners may have been found.

Sequences of proteins named here, by UniProt entry; tags and fusion partners are left off. Residues count along the entry.
UniProt Q9H4L4: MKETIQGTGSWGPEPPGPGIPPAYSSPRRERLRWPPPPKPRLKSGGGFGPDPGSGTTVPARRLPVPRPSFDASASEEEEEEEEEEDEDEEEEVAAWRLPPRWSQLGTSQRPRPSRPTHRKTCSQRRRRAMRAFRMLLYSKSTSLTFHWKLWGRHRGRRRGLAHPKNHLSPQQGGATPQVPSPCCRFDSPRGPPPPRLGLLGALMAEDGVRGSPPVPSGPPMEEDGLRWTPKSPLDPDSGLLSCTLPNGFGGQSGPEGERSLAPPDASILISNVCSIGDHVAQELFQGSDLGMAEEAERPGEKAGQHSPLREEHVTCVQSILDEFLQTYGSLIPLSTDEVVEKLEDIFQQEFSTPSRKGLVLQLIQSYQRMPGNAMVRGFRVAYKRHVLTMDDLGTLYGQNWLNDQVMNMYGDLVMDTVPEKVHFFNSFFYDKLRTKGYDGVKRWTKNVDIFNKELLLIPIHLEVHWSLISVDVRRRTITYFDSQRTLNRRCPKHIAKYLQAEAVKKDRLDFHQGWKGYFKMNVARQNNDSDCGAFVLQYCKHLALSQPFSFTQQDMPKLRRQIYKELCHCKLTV
UniProt Q14974: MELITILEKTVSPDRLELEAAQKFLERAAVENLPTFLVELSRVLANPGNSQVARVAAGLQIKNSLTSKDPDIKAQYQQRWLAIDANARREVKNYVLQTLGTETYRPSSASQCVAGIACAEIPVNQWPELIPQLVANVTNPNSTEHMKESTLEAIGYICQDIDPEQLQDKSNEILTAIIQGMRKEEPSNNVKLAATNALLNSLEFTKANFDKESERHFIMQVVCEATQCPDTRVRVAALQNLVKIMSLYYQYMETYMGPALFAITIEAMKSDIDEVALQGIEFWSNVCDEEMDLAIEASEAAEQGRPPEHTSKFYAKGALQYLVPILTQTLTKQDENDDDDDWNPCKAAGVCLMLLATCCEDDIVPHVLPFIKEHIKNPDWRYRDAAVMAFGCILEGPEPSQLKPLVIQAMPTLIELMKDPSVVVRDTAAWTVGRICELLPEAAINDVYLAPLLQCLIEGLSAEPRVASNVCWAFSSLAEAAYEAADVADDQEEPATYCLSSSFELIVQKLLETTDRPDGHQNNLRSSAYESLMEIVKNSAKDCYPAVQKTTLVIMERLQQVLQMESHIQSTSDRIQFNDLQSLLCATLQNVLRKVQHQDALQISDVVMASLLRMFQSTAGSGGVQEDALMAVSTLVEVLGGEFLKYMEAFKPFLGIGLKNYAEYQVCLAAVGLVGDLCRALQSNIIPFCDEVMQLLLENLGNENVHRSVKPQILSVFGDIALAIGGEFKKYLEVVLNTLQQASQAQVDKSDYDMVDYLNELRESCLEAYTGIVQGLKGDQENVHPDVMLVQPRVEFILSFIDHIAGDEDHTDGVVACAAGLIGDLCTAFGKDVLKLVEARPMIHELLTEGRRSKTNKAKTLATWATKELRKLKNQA
UniProt P14625, residues 22-803: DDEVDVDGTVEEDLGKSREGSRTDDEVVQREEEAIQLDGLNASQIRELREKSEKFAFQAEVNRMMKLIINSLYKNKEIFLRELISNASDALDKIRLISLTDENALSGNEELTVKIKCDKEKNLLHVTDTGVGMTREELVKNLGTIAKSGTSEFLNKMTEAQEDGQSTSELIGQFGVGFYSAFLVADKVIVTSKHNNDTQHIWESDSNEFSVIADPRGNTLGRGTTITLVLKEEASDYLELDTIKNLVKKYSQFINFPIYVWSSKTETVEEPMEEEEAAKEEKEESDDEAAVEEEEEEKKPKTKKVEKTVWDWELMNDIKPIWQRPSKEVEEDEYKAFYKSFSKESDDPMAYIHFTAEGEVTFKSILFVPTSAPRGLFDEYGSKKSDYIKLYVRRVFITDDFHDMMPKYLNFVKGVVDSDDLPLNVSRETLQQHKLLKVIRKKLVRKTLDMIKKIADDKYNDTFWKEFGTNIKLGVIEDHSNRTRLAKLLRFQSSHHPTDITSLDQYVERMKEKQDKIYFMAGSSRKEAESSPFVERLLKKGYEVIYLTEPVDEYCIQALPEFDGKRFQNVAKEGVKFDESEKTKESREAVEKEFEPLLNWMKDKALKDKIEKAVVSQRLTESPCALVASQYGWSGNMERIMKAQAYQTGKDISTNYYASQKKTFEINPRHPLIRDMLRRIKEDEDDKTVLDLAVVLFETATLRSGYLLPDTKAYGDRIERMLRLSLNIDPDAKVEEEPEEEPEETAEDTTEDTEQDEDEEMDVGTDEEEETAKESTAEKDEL
UniProt Q13200: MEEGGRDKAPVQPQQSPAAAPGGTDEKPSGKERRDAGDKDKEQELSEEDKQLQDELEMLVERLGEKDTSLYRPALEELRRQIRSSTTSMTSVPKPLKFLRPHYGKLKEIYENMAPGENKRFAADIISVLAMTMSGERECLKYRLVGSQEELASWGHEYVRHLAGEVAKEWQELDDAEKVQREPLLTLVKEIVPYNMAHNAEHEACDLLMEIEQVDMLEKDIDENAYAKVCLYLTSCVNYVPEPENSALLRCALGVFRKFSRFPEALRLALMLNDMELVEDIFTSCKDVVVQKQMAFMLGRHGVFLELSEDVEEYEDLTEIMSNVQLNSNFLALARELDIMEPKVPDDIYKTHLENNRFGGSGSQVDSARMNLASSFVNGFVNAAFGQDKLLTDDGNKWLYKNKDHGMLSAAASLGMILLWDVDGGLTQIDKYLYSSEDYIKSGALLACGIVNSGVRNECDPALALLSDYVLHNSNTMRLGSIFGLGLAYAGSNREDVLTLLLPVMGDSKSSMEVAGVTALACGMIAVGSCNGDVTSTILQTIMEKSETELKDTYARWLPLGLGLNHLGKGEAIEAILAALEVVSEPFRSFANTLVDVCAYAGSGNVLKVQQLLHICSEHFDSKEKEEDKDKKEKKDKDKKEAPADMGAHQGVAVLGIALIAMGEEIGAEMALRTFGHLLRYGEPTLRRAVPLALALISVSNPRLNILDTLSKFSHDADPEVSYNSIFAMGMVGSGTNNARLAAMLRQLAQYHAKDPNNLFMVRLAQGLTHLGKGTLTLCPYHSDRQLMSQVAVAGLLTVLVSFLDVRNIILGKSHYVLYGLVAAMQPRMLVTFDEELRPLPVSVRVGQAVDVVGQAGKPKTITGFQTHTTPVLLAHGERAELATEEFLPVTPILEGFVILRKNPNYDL
UniProt Q08945: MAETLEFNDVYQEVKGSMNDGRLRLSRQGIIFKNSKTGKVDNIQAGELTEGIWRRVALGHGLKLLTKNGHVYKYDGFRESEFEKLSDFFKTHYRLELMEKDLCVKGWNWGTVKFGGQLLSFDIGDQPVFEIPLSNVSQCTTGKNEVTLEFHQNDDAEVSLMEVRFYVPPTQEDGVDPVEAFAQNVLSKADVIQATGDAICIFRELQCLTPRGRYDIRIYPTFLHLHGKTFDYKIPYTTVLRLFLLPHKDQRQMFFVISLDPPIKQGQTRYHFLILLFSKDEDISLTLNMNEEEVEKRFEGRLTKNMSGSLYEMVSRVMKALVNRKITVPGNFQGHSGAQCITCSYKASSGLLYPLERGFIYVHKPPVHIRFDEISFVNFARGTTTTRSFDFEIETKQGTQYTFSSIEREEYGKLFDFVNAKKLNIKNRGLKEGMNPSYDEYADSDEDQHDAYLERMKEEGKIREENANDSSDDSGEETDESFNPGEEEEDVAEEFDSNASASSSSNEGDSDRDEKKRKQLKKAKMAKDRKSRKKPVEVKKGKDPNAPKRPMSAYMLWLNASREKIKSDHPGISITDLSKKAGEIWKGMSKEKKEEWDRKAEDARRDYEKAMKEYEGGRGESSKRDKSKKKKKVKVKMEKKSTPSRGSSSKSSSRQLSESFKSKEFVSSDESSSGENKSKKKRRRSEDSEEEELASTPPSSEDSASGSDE
UniProt P08238: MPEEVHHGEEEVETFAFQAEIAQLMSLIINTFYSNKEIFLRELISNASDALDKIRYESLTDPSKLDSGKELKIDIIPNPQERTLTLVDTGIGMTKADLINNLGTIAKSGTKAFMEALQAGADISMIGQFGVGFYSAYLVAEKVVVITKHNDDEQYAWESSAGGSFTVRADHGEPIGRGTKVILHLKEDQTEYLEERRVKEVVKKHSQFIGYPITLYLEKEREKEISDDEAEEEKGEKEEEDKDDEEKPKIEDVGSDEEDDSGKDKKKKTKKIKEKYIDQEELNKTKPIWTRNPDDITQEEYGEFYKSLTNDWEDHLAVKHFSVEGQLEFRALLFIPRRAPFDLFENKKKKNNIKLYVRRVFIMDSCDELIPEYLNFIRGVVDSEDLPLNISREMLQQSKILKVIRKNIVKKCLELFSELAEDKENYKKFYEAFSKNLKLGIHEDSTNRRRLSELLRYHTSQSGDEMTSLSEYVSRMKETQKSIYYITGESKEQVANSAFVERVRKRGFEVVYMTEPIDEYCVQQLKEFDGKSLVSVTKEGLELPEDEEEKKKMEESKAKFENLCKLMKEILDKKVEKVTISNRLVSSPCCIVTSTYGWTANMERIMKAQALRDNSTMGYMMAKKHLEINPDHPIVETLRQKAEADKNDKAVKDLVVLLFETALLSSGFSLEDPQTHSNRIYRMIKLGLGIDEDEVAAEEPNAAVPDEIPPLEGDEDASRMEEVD
UniProt Q09161: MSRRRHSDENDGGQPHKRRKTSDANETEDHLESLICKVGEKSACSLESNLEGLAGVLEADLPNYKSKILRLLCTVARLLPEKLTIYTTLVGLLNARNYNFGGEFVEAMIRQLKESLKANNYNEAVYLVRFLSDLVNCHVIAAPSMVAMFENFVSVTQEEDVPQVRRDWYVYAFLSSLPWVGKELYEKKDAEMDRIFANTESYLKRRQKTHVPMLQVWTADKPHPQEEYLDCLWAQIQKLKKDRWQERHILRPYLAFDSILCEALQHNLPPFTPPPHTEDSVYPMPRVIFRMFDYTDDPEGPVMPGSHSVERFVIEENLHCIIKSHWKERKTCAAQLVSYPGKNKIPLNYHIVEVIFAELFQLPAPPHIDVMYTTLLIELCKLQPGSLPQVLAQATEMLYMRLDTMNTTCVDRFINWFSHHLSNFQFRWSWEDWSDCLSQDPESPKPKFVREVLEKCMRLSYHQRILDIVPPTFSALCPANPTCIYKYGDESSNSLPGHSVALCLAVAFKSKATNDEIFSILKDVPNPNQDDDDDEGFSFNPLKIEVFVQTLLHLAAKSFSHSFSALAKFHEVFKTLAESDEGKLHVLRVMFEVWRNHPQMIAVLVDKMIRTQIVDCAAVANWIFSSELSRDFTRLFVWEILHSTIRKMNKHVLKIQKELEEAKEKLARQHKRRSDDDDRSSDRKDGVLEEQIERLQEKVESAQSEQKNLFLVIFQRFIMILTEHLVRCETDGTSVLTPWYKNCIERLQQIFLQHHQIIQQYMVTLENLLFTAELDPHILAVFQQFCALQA
UniProt O43747: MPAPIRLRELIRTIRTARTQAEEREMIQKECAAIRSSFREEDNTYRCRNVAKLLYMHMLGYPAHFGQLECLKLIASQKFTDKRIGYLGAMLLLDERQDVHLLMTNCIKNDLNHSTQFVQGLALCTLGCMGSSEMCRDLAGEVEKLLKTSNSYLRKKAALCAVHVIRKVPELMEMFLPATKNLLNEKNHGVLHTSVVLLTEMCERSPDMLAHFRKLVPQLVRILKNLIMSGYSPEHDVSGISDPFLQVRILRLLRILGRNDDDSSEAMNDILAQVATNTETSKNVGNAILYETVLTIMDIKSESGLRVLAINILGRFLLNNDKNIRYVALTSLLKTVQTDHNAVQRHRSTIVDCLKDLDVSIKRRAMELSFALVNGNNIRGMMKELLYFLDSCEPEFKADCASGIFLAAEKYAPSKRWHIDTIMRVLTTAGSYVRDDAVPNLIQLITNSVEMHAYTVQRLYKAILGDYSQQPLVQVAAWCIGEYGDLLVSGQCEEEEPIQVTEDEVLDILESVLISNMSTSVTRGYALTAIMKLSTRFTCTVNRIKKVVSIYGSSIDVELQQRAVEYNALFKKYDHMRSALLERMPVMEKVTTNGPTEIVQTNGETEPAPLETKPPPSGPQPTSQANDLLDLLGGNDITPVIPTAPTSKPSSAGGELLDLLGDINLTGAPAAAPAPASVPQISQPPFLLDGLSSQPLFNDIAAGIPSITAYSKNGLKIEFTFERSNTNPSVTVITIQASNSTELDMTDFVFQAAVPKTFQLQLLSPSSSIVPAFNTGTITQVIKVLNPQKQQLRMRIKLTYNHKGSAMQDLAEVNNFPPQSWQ

B1: MAD1L1 (protein, UniProt Q9Y6D9 1-718)
chain: MEDLGENTMVLSTLRSLNNFISQRVEGGSGLDISTSAPGSLQMQYQQSMQLEERAEQIRSKSHLIQVEREKMQMELSHKRARVELERAASTSARNYEREVDRNQELLTRIRQLQEREAGAEEKMQEQLERNRQCQQNLDAASKRLREKEDSLAQAGETINALKGRISELQWSVMDQEMRVKRLESEKQELQEQLDLQHKKCQEANQKIQELQASQEARADHEQQIKDLEQKLSLQEQDAAIVKNMKSELVRLPRLERELKQLREESAHLREMRETNGLLQEELEGLQRKLGRQEKMQETLVGLELENERLLAKLQSWERLDQTMGLSIRTPEDLSRFVVELQQRELALKDKNSAVTSSARGLEKARQQLQEELRQVSGQLLEERKKRETHEALARRLQKRVLLLTKERDGMRAILGSYDSELTPAEYSPQLTRRMREAEDMVQKVHSHSAEMEAQLSQALEELGGQKQRADMLEMELKMLKSQSSSAEQSFLFSREEADTLRLKVEELEGERSRLEEEKRMLEAQLERRALQGDYDQSRTKVLHMSLNPTSVARQRLREDHSQLQAECERLRGLLRAMERGGTVPADLEAAAASLPSSKEVAELKKQVESAELKNQRLKEVFQTKIQEFRKACYTLTGYQIDITTENQYRLTSLYAEHPGDCLIFKATSPSGSKMQLLETEFSHTVGELIEVHLRRQDSIPAFLSSLTLELFSRQTVA
B2: MCM3 (protein, UniProt P25205 1-808)
chain: MAGTVVLDDVELREAQRDYLDFLDDEEDQGIYQSKVRELISDNQYRLIVNVNDLRRKNEKRANRLLNNAFEELVAFQRALKDFVASIDATYAKQYEEFYVGLEGSFGSKHVSPRTLTSCFLSCVVCVEGIVTKCSLVRPKVVRSVHYCPATKKTIERRYSDLTTLVAFPSSSVYPTKDEENNPLETEYGLSVYKDHQTITIQEMPEKAPAGQLPRSVDVILDDDLVDKAKPGDRVQVVGTYRCLPGKKGGYTSGTFRTVLIACNVKQMSKDAQPSFSAEDIAKIKKFSKTRSKDIFDQLAKSLAPSIHGHDYVKKAILCLLLGGVERDLENGSHIRGDINILLIGDPSVAKSQLLRYVLCTAPRAIPTTGRGSSGVGLTAAVTTDQETGERRLEAGAMVLADRGVVCIDEFDKMSDMDRTAIHEVMEQGRVTIAKAGIHARLNARCSVLAAANPVYGRYDQYKTPMENIGLQDSLLSRFDLLFIMLDQMDPEQDREISDHVLRMHRYRAPGEQDGDAMPLGSAVDILATDDPNFSQEDQQDTQIYEKHDNLLHGTKKKKEKMVSAAFMKKYIHVAKIIKPVLTQESATYIAEEYSRLRSQDSMSSDTARTSPVTARTLETLIRLATAHAKARMSKTVDLQDAEEAVELVQYAYFKKVLEKEKKRKKRSEDESETEDEEEKSQEDQEQKRKRRKTRQPDAKDGDSYDPYDFSDTEEEMPQVHTPKTADSQETKESQKVELSESRLKAFKVALLDVFREAHAQSIGMNRLTESINRDSEEPFSSVEIQAALSKMQDDNQVMVSEGIIFLI
B3: DDX27 (protein, UniProt Q96GQ7 1-765)
chain: MLADLGLIGTIGEDDEVPVEPESDSGDEEEEGPIVLGRRQKALGKNRSADFNPDFVFTEKEGTYDGSWALADVMSQLKKKRAATTLDEKIEKVRKKRKTEDKEAKSGKLEKEKEAKEGSEPKEQEDLQENDEEGSEDEASETDYSSADENILTKADTLKVKDRKKKKKKGQEAGGFFEDASQYDENLSFQDMNLSRPLLKAITAMGFKQPTPIQKACIPVGLLGKDICACAATGTGKTAAFALPVLERLIYKPRQAPVTRVLVLVPTRELGIQVHSVTRQLAQFCNITTCLAVGGLDVKSQEAALRAAPDILIATPGRLIDHLHNCPSFHLSSIEVLILDEADRMLDEYFEEQMKEIIRMCSHHRQTMLFSATMTDEVKDLASVSLKNPVRIFVNSNTDVAPFLRQEFIRIRPNREGDREAIVAALLTRTFTDHVMLFTQTKKQAHRMHILLGLMGLQVGELHGNLSQTQRLEALRRFKDEQIDILVATDVAARGLDIEGVKTVINFTMPNTIKHYVHRVGRTARAGRAGRSVSLVGEDERKMLKEIVKAAKAPVKARILPQDVILKFRDKIEKMEKDVYAVLQLEAEEKEMQQSEAQINTAKRLLEKGKEAVVQEPERSWFQTKEERKKEKIAKALQEFDLALRGKKKRKKFMKDAKKKGEMTAEERSQFEILKAQMFAERLAKRNRRAKRARAMPEEEPVRGPAKKQKQGKKSVFDEELTNTSKKALKQYRAGPSFEERKQLGLPHQRRGGNFKSKSRYKRRK
B4: ZW10 (protein, UniProt O43264 1-779)
chain: MASFVTEVLAHSGRLEKEDLGTRISRLTRRVEEIKGEVCNMISKKYSEFLPSMQSAQGLITQVDKLSEDIDLLKSRIESEVRRDLHVSTGEFTDLKQQLERDSVVLSLLKQLQEFSTAIEEYNCALTEKKYVTGAQRLEEAQKCLKLLKSRKCFDLKILKSLSMELTIQKQNILYHLGEEWQKLIVWKFPPSKDTSSLESYLQTELHLYTEQSHKEEKTPMPPISSVLLAFSVLGELHSKLKSFGQMLLKYILRPLASCPSLHAVIESQPNIVIIRFESIMTNLEYPSPSEVFTKIRLVLEVLQKQLLDLPLDTDLENEKTSTVPLAEMLGDMIWEDLSECLIKNCLVYSIPTNSSKLQQYEEIIQSTEEFENALKEMRFLKGDTTDLLKYARNINSHFANKKCQDVIVAARNLMTSEIHNTVKIIPDSKINVPELPTPDEDNKLEVQKVSNTQYHEVMNLEPENTLDQHSFSLPTCRISESVKKLMELAYQTLLEATTSSDQCAVQLFYSVRNIFHLFHDVVPTYHKENLQKLPQLAAIHHNNCMYIAHHLLTLGHQFRLRLAPILCDGTATFVDLVPGFRRLGTECFLAQMRAQKGELLERLSSARNFSNMDDEENYSAASKAVRQVLHQLKRLGIVWQDVLPVNIYCKAMGTLLNTAISEVIGKITALEDISTEDGDRLYSLCKTVMDEGPQVFAPLSEESKNKKYQEEVPVYVPKWMPFKELMMMLQASLQEIGDRWADGKGPLAAAFSSSEVKALIRALFQNTERRAAALAKIK
B5: XAB2 (protein, UniProt Q9HCS7 1-855)
chain: MVVMARLSRPERPDLVFEEEDLPYEEEIMRNQFSVKCWLRYIEFKQGAPKPRLNQLYERALKLLPCSYKLWYRYLKARRAQVKHRCVTDPAYEDVNNCHERAFVFMHKMPRLWLDYCQFLMDQGRVTHTRRTFDRALRALPITQHSRIWPLYLRFLRSHPLPETAVRGYRRFLKLSPESAEEYIEYLKSSDRLDEAAQRLATVVNDERFVSKAGKSNYQLWHELCDLISQNPDKVQSLNVDAIIRGGLTRFTDQLGKLWCSLADYYIRSGHFEKARDVYEEAIRTVMTVRDFTQVFDSYAQFEESMIAAKMETASELGREEEDDVDLELRLARFEQLISRRPLLLNSVLLRQNPHHVHEWHKRVALHQGRPREIINTYTEAVQTVDPFKATGKPHTLWVAFAKFYEDNGQLDDARVILEKATKVNFKQVDDLASVWCQCGELELRHENYDEALRLLRKATALPARRAEYFDGSEPVQNRVYKSLKVWSMLADLEESLGTFQSTKAVYDRILDLRIATPQIVINYAMFLEEHKYFEESFKAYERGISLFKWPNVSDIWSTYLTKFIARYGGRKLERARDLFEQALDGCPPKYAKTLYLLYAQLEEEWGLARHAMAVYERATRAVEPAQQYDMFNIYIKRAAEIYGVTHTRGIYQKAIEVLSDEHAREMCLRFADMECKLGEIDRARAIYSFCSQICDPRTTGAFWQTWKDFEVRHGNEDTIKEMLRIRRSVQATYNTQVNFMASQMLKVSGSATGTVSDLAPGQSGMDDMKLLEQRAEQLAAEAERDQPLRAQSKILFVRSDASREELAELAQQVNPEEIQLGEDEDEDEMDLEPNEVRLEQQSVPAAVFGSLKED
B6: MATR3 (protein, UniProt P43243 1-847)
chain: MSKSFQQSSLSRDSQGHGRDLSAAGIGLLAAATQSLSMPASLGRMNQGTARLASLMNLGMSSSLNQQGAHSALSSASTSSHNLQSIFNIGSRGPLPLSSQHRGDADQASNILASFGLSARDLDELSRYPEDKITPENLPQILLQLKRRRTEEGPTLSYGRDGRSATREPPYRVPRDDWEEKRHFRRDSFDDRGPSLNPVLDYDHGSRSQESGYYDRMDYEDDRLRDGERCRDDSFFGETSHNYHKFDSEYERMGRGPGPLQERSLFEKKRGAPPSSNIEDFHGLLPKGYPHLCSICDLPVHSNKEWSQHINGASHSRRCQLLLEIYPEWNPDNDTGHTMGDPFMLQQSTNPAPGILGPPPPSFHLGGPAVGPRGNLGAGNGNLQGPRHMQKGRVETSRVVHIMDFQRGKNLRYQLLQLVEPFGVISNHLILNKINEAFIEMATTEDAQAAVDYYTTTPALVFGKPVRVHLSQKYKRIKKPEGKPDQKFDQKQELGRVIHLSNLPHSGYSDSAVLKLAEPYGKIKNYILMRMKSQAFIEMETREDAMAMVDHCLKKALWFQGRCVKVDLSEKYKKLVLRIPNRGIDLLKKDKSRKRSYSPDGKESPSDKKSKTDGSQKTESSTEGKEQEEKSGEDGEKDTKDDQTEQEPNMLLESEDELLVDEEEAAALLESGSSVGDETDLANLGDVASDGKKEPSDKAVKKDGSASAAAKKKLKKVDKIEELDQENEAALENGIKNEENTEPGAESSENADDPNKDTSENADGQSDENKDDYTIPDEYRIGPYQPNVPVGIDYVIPKTGFYCKLCSLFYTNEEVAKNTHCSSLPHYQKLKKFLNKLAEERRQKKET

Molecular target: FLAG-SENP3 (UniProt Q9H4L4)
Test: affinity purification with mass spectrometry; 293T cells transfected with vector FLAG-pcDNA or FLAG-SENP3; co-IP with anti-FLAG antibody; gel silver stained, bands of approximately 100 kDa examined by MS; Table 1 lists the hits that were also increased in lysate of SENP3-transfected cells

binding, binds:
XRCC5 (Ku80) (from UniProt P13010 1-732)
CDC5L (from UniProt Q99459 1-802)
KPNB1 (from UniProt Q14974 1-876)
HSP90B1 (from UniProt P14625 22-803)
NCAPH (from UniProt Q15003 1-741)
PSMD2 (from UniProt Q13200 1-908)
DDX17 (from UniProt Q92841 1-729)
COPG1 (from UniProt Q9Y678 1-874)
PDCD6IP (from UniProt Q8WUM4 1-868)
TRIM28 (from UniProt Q13263 1-835)
SSRP1 (from UniProt Q08945 1-709)
Specificity protein 1 (Sp1), endogenous (from UniProt P08047 1-785)
HSP90AB1 (from UniProt P08238 1-724)
NCBP1 (from UniProt Q09161 1-790)
DHX15 (from UniProt O43143 1-795)
TELO2 (from UniProt Q9Y4R8 1-837)
AP1G1 (from UniProt O43747 1-822)
VCP (from UniProt P55072 1-806)
HSP90AA1 (from UniProt P07900 1-732)
UBE3A (from UniProt Q05086 1-875)
SEC63 (from UniProt Q9UGP8 1-760)
B1
B2
B3
B4
B5
B6
